# For at least one compound, name, drawing or mass did not settle the structure.
# Amino acid sequences for entries named in this document (tags omitted).
# UniProt P27487, whole entry, species assumed: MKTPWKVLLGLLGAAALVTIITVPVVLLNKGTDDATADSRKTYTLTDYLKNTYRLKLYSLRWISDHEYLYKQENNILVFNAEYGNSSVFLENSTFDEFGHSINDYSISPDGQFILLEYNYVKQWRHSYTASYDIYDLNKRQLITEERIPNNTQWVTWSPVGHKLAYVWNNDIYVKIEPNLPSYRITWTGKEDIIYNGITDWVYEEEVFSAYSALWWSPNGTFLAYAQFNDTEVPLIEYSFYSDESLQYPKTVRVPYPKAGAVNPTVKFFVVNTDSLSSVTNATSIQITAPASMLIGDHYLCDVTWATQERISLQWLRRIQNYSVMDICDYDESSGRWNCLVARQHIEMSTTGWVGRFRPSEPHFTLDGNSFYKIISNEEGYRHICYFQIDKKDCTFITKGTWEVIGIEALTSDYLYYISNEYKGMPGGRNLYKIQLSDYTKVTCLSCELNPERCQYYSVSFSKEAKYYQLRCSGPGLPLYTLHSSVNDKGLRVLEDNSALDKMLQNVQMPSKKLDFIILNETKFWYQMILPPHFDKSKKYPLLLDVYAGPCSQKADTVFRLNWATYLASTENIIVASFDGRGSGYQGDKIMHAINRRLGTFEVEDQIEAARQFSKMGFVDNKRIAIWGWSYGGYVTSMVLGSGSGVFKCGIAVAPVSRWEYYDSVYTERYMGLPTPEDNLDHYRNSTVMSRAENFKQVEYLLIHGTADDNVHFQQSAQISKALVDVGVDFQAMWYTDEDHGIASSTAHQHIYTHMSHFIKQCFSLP
# Molecular target: Recombinant DPP-IV (Homo sapiens, UniProt P27487)
# Assay: DPP-IV inhibition assay with chromogenic substrate
# Type: biochemical
# Design: purchased Chemicon International, Inc., Temecula, Calif
# Settings: mean SEM of at least three determinations
# Protocol: The reactions were initiated by adding 1 μl DPP-IV enzyme (0.05 mU) into each well and the absorbance at 410 nm was measured with 20-sec intervals over a 30-min period using a SpectraMax plate reader (Molecular Devices, Corp., Sunnyvale, Calif.). The velocities of each reaction at different inhibitor concentrations were calculated and the reciprocal velocities were plotted against inhibitor concentrations in Dixon graphs. The IC50 values of reaction velocities were calculated through fitting the plots with linear equation.
# The IC50 (nM) values in Table 5 are expressed as the mean SEM of at least three independent determinations.
smiles,measurement,value
CC[C@H](C)[C@H](NC(=O)[C@H](CO)NC(=O)[C@H](Cc1ccc(O)cc1)NC(=O)[C@H](CC(=O)O)NC(=O)[C@H](CO)NC(=O)[C@@H](NC(=O)[C@H](Cc1ccccc1)NC(=O)[C@@H](NC(=O)CNC(=O)[C@H](CCC(=O)O)NC(=O)[C@H](C)NC(=O)[C@@H](N)Cc1ccc(O)cc1)[C@@H](C)O)[C@@H](C)CC)C(=O)N[C@@H](C)C(=O)N[C@@H](CCSC)C(=O)N[C@@H](CC(=O)O)C(=O)N[C@@H](CCCCN)C(=O)N[C@H](C(=O)N[C@@H](Cc1c[nH]cn1)C(=O)N[C@@H](CCC(N)=O)C(=O)N[C@@H](CCC(N)=O)C(=O)N[C@@H](CC(=O)O)C(=O)N[C@@H](Cc1ccccc1)C(=O)N[C@H](C(=O)N[C@@H](CC(N)=O)C(=O)N[C@@H](Cc1c[nH]c2ccccc12)C(=O)N[C@@H](CC(C)C)C(=O)N[C@@H](CC(C)C)C(=O)N[C@@H](C)C(=O)N[C@@H](CCC(N)=O)C(=O)N[C@@H](CCCCN)C(=O)NCCOCCOCC(=O)NCCOCCOCC(=O)NCCCC[C@H](N)C(=O)N1CCC[C@H]1C#N)C(C)C)[C@@H](C)CC [GIP(1-30)-Ado-Ado-Lys-N-ε-(2-(S)-cyano pyrrolidyl)],IC50,114 ± 17 nM
